Read-outs that look alike come from different tables or passages of the source. No constants are given. Whether binding was seen depends on the method and setting. In cells and extracts the contact can be indirect. Here binding means that the protein was enriched with, or labelled near, the bait; the list need not be complete.

Protein sequences, listed by entry. Tags and fused reporters are not part of them. Lines headed by an entry give the natural chain unless they say otherwise; changes in a name come on top.
UniProt B1WBN7: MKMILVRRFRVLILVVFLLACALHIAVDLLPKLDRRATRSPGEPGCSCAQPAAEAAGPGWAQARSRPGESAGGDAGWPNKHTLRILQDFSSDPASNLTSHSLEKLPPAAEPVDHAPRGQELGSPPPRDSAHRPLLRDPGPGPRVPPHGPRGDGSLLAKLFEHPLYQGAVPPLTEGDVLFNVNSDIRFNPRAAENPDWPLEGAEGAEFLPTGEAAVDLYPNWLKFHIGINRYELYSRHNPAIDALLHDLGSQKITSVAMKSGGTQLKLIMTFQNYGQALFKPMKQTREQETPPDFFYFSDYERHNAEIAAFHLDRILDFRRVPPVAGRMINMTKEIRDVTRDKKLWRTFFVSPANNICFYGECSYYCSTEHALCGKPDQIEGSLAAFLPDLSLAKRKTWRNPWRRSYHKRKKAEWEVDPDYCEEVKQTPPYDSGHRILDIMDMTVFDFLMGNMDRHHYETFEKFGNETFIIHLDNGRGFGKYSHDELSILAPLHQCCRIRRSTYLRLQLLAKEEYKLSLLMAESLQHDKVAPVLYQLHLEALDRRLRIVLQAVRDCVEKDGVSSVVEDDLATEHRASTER
UniProt O88453: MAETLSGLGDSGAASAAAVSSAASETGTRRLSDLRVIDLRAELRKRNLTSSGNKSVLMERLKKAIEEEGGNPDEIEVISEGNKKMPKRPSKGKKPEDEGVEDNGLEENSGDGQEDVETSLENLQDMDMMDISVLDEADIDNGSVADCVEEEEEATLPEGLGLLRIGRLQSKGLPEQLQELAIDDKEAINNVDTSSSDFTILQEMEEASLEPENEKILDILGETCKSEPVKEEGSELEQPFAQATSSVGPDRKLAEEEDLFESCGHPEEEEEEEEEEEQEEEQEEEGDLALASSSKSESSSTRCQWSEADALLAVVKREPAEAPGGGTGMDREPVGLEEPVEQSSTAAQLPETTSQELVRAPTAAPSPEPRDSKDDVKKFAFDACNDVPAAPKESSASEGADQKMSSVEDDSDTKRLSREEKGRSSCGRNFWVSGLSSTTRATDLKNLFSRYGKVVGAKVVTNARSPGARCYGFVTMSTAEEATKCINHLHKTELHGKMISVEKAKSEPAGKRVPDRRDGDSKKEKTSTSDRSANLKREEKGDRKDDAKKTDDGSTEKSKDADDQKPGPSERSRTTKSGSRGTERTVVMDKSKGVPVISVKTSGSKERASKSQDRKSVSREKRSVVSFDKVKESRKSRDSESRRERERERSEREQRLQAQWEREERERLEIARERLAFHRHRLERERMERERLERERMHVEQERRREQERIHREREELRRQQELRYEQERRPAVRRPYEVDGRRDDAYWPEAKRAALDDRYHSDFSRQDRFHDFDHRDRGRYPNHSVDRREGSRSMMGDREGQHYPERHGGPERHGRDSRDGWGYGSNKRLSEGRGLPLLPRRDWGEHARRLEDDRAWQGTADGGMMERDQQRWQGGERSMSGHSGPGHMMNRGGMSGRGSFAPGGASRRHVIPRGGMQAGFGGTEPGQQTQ
UniProt O08629: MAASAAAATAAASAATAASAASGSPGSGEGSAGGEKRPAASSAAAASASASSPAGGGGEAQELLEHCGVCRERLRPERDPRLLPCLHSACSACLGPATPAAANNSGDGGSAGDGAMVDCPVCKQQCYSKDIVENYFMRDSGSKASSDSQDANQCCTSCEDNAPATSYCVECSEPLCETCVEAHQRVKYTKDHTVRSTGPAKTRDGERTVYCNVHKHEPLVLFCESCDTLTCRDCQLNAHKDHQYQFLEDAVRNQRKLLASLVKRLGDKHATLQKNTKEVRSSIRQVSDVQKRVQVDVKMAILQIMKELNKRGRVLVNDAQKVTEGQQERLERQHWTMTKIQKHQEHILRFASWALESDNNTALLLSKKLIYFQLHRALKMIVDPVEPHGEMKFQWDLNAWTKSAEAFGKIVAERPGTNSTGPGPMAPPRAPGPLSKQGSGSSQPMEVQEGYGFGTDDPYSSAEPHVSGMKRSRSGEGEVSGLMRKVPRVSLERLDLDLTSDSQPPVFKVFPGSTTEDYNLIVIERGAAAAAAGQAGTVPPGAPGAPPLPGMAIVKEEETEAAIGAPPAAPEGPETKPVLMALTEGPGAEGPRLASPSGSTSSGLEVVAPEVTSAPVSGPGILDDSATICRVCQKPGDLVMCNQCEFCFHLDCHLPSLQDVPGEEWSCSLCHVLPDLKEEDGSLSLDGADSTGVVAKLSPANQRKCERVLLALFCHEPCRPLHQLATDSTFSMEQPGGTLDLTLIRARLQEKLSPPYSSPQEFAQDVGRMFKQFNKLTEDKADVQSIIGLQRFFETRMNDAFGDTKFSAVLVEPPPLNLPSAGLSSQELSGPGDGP

Experiment [1] addresses FAM20C, endogenous in rat hippocampal tissue (rat (endogenous in hippocampal tissue)) (UniProt B1WBN7). Kind of experiment: affinity purification with mass spectrometry; immunoprecipitation with an anti-FAM20C antibody from hippocampal tissue of healthy 7-day-old rats; gel strip mass spectrometry; hits filtered for the Ser-x-Glu/pSer motif.
The target is the same in experiment [2]. The experiment is described as above. This is another data set of the same source.

With “SAFB, endogenous in rat hippocampal tissue (from UniProt O88453 1-931)”, in experiment [1], the binding result is “binds”. Same read-out and setting: the value for “KAP1, endogenous in rat hippocampal tissue (from UniProt O08629 1-835)” was “binds”.

B1: ADAR, endogenous in rat hippocampal tissue (enzyme, UniProt P55266 1-1175)
chain: MSQGFRGPTGVFPHQTQPCLDPSYEHSKWRYLQPRGSESYLRSFQLQQIEFLKGRLPEAPLIGAQTQSLPPFLPGHWPRFPGPPAQGKQPEIWGFPRSVTLRNQGFHIGPPLPPPHSRGPPWRGAEGLCSHFQELSISQNPEQKVLNRLEELGEGKATTAYALARELRTPKKDINRILYSLERKGKLHRGVGKPPLWSLVPLSQACTQPPRAVNSDKEVPRGEPDLDSEDGDPASDLEGPSELLDMAEIKEKICDYLFNVSKSSALNLAKNIGLAKARDVNAVLIDLERQGDVYREGATPPIWYLTDKKRERLQMKRSTHSGPAATPAAVSEATQSTSFPTCHPPQSGGSSSMATSKRVENGQEPVTKYESRHEARPGPVRLRPHAYHNGPSRAGYVASENGPWATDDIPDNLNSIHTAPGEFRAIMEMPSFYSPTLPRCSPYKKLTECQLKNPVSGLLEYAQFTSQTCDFNLIEQSGPSHEPRFKFQVVINGREFPPAEAGSKKVAKQDAAVKAMAILLREAKAKDSGQPEELSNCPMEEDPEKPAESQPPSSSATSLFSGKSPVTTLLECMHKLGNSCEFRLLSKEGPAHDPKFQYCVAVGAQTFPSVSAPSKKVAKQMAAEEAMKALQEEAANSADDQSGGANTDSLDESVAPNKIRRIGELVRYLNTNPVGGLLEYARSHGFAAEFKLIDQSGPPHEPKFVYQAKVGGRWFPAVCAHSKKQGKQDAADAALRVLIGESEKAEQLGFAEVTPVTGASLRRTMLLLSRSPDAHPKTLPLTGSTFHDQIAMLSHRCFNALTNSFQPSLLGRKILAAIIMKRDPEDMGVVVSLGTGNRCVKGDSLSLKGETVNDCHAEIISRRGFIRFLYSELMKYNHHTAKNSIFELARGGEKLQIKKTVSFHLYISTAPCGDGAHFDKSCSDRAVESTESRHYPVFENPKQGKLRTKVENGEGTIPVESSDIVPTWDGIRLGERLRTMSCSDKILRWNVLGLQGALLTHFLQPVYLKSVTLGYLFSQGHLTRAICCRVTRDGNAFEDGLRYPFIVNHPKVGRVSVYDSKRQSGKTKETSVNWCLADGYDLEILDGTRGTVDGPGKELSRVSKKNIFLQFKKLCSFRARRDLLQLSYGEAKKAARDYDLAKNYFKKSLRDMGYGNWISKPQEEKNFYLCPVPND
In the case of B1, in experiment [2], the binding entry is recorded as “binds”.

B2: DAGLA, endogenous in rat hippocampal tissue (enzyme, UniProt Q5YLM1 1-1044)
chain: MPGIVVFRRRWSVGSDDLVLPAIFLFLLHTTWFVILSVVLFGLVYNPHEACSLNLVDHGRGYLGILLSCMIAEMAIIWLSMRGGILYTEPRDSMQYVLYVRLAILVIEFIYAIVGIVWLTQYYTSCNDLTAKNVTLGMVVCNWVVILSVCITVLCVFDPTGRTFVKLRATKRRQRNLRTYNLRHRLEEGQATSWSRRLKVFLCCTRTKDSQSDAYSEIAYLFAEFFRDLDIVPSDIIAGLVLLRQRQRAKRNAVLDEANNDILAFLSGMPVTRNTKYLDLKNSHEMLRYKEVCYYMLFALAAYGWPMYLMRKPTCGLCQLARSCSCCLCPARPRFAPGVTIEEDNCCGCNAIAIRRHFLDENMTAVDIVYTSCHDAVYETPFYVAVDHDKKKVVISIRGTLSPKDALTDLTGDAERLPVEGHRGTWLGHKGMVLSAEYIKKKLEQEMVLSQAFGRDLGRGTKHYGLIVVGHSLGAGTAAILSFLLRPQYPTLKCFAYSPPGGLLSEDAMEYSKEFVTAVVLGKDLVPRIGLSQLEGFRRQLLDVLQRSTKPKWRIIVGATKCIPKSELPEDQVEVTALASTRLWTHPSDLTIALSASTPLYPPGRIIHVVHNHPAEQCCCCEQEEPTYFAIWGDNKAFNEVIISPAMLHEHLPYVVMEGLNKVLENYNKGKTALLSAAKVMVSPTEVDLTPELIFQQQPLPTGPPLPTGLALELPATEHRNSSVRSKSQSEMSLEGFSEGRLLSPVAAASAARQDPVELLLLSTQERLAAELQSRRAPLATMESLSDTESLYSFDSRRSSGFRSIRGSPSLHAVLERDEGHLFYIDPAIPEENPSLSSRTELLAADSLSKHSQDTQPLEAALGSGGVTPERPPSAANDEEEAAGGSEGGGVAPRGELALHNGRLGDSPSPQVLEFAEFIDSLFNLDSKSSSFQDLYCMMVPESPTSDYTEGPKSPSQQEILLRAQFEPNLVPKPPRLFAGSAEPSSGISLSPSFPLSSSGELMDLTPTGLSSQECLATDKIRTSTPTGHGASPTKQDDLVISAR
Regarding B2, the binding entry in experiment [2] is reported as “binds”.
